In article PMC4673198 one finds binding data, which are given here for one substance.

Protein sequences, listed by entry. Tags and fused reporters are not part of them.
UniProt O43474: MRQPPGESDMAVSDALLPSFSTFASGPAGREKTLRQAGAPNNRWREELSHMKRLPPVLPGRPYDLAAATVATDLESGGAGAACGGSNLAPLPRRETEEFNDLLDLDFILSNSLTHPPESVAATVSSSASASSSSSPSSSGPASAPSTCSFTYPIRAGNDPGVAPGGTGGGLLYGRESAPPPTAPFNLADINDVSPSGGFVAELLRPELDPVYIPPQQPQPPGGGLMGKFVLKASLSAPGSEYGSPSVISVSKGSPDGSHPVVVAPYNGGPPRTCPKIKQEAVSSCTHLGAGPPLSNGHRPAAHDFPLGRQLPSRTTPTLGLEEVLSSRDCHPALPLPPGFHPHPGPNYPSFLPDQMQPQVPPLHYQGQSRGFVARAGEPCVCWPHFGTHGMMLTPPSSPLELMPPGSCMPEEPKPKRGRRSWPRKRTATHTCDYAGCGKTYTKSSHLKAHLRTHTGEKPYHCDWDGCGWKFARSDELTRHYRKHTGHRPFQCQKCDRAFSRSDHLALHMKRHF

No constants are given. Whether binding was seen depends on the method and setting. In cells and extracts the contact can be indirect. A yes stands for co-enrichment or nearness to the bait. Other partners may have been found.

This experiment deals with Flag-KLF4 (UniProt O43474). Description: affinity purification with mass spectrometry; HepG2 cells infected with adenovirus expressing Flag-KLF4 or empty vector for 36 hr; NETN lysis buffer; anti-FLAG M2 affinity resin overnight at 4°C; eluted with 3 x Flag-peptide; SDS-PAGE, MS/MS.

Consider “SKP1, endogenous in HepG2 (from UniProt P63208 1-163)”, for which the binding entry is on record as “binds”.
